# From the supplement of paper PMC8732350
# “And” between values parts separate entries of the source, which are not always exact repeats. Equal entries are not always repeated. Structures can show the parent of a compound that is named as a salt. ± gives the standard deviation of the averaged measurements. This is one part of the list. Single values are uncertain here, since repeats match poorly.
# Test system: A549
# Experiment: surface PD-L1 immunofluorescence intensity relative to IFN-gamma-only control (ratio); higher = more PD-L1 expression
# Details: 10 µM; exposure time 24 h; IFN-gamma 100 ng/mL
row,SMILES,surface PD-L1 immunofluorescence intensity
1,COc1cc(OC)c(OC)cc1C=O [Asaraldehyde (Asaronaldehyde)],0.867
2,C[N+]1(C)CCCC(OC(=O)C(O)(c2ccccc2)c2ccccc2)C1 (stereo not drawn) [Mepenzolate bromide],1.02
3,C[C@@H]1CN([C@H]2CC[C@](C#N)(c3ccc(F)cc3)CC2)CC[C@]1(C(=O)O)c1ccccc1 [Levocabastine hydrochloride],1.02
4,C(=C\c1ccccc1)/CN1CCN(CCOC(c2ccccc2)c2ccccc2)CC1,1.06
5,c1ccc2sc(C3(N4CCCCC4)CCCCC3)cc2c1 [BTCP maleate],1.09
6,C=CCC1(CC(C)C)C(=O)NC(=O)NC1=O [Butalbital],0.977
7,O=C1C2CCN(CC2)C1(CO)CO,0.96
8,"C=CCN1CC[C@]2(C)c3cc(O)ccc3C[C@H]1C2C (single isomer, unassigned; (+))",1.03
9,CCC(=O)O[C@H]1CC[C@H]2[C@@H]3CCC4=CC(=O)CC[C@]4(C)[C@H]3CC[C@]12C [Testosterone propionate],1.04
10,COc1ccc(OC)c(C(O)C(C)N)c1 (stereo not drawn) [Methoxamine hydrochloride],0.954
11,Ic1cncc(OC[C@@H]2CCN2)c1,1.02
12,CCOc1cncc(/C=C/CCNC)c1 [TC 2559 difumarate],0.968
13,CCOC(=O)c1ncn2c1CN(C)C(=O)c1cc(N=[N+]=[N-])ccc1-2,1.01
14,CCCN1CCO[C@@H]2c3cc(O)ccc3OC[C@H]21,1.06 and 1.05
15,CN1C(=O)CCS(=O)(=O)C1c1ccc(Cl)cc1 (stereo not drawn) [Chlormezanone],1.01 ± 0.065
16,O=P1(N(CCCl)CCCl)NCCCO1 (stereo not drawn) [Cyclophosphamide],1.1
17,CCCN[C@@H]1CCc2c(OC)cccc2[C@@H]1C [(+)-AJ 76 hydrochloride],1.03
18,Cn1c2c(c3ccccc31)CCNCC2,0.972
19,C=C1C[C@@H]2[C@H](CC[C@]3(C)C(=O)CC[C@@H]23)[C@@]2(C)C=CC(=O)C=C12 [Exemestane],1.06 ± 0.1
20,CC(=O)[C@H]1CC[C@H]2[C@@H]3CC[C@H]4C[C@H](O)CC[C@]4(C)[C@H]3C(=O)C[C@]12C [Alfaxalone],0.901
21,CC1=NN=C(c2ccc(N)cc2)c2cc3c(cc2C1)OCO3,1.05
22,C[C@H]1CNCCc2ccc(Cl)cc21 [Lorcaserin HCl],0.986
23,O=C(O)CCC(CP(=O)(O)O)C(=O)O (stereo not drawn) [PMPA (NAALADase inhibitor)],0.964

row,SMILES,surface PD-L1 immunofluorescence intensity
1,CN(C)C(=O)Oc1cccc([N+](C)(C)C)c1 [Neostigmine bromide],1.03
2,Cc1onc(O)c1C[C@H](N)C(=O)O,1.15
3,CN1[C@@H]2CC[C@H]1CC(OC(=O)N1Cc3ccccc3NC1=O)C2 (stereo partly drawn) [DAU 5884 hydrochloride],1
4,COc1ccc(C(CN(C)C)C2(O)CCCCC2)cc1 (stereo not drawn) [Venlafaxine],1.08
5,CCc1c(C(=O)C(N)=O)c2c(OCC(=O)O)cccc2n1Cc1ccccc1,1.13
6,"CC(=O)[C@H]1CC[C@H]2[C@@H]3CC[C@@H]4CC(=O)CC[C@]4(C)[C@H]3CC[C@]12C [5b-Pregnan-3,20-dione]",1
7,CCNCC(O)c1cccc(O)c1 (stereo not drawn) [Etilefrine hydrochloride],0.956
8,Clc1cccc(SC2CCNCC2)n1 [Anpirtoline hydrochloride],1.09
9,CCOC(=O)c1ncc2[nH]c3ccc(OCc4ccccc4)cc3c2c1COC,1.03
10,NP(N)(=O)NC(=O)c1ccc(F)cc1 [Flurofamide],0.969
11,CC(C)(N)Cc1ccccc1 [Phentermine hydrochloride],0.953
12,CN1[C@@H]2CC[C@H]1C[C@@H](OC(=O)C(CO)c1ccccc1)C2 (stereo partly drawn) [Atropine],1.08
13,CN1[C@@H]2CC[C@H]1C[C@@H](OC(=O)C(CO)c1ccccc1)C2 (stereo partly drawn) [Atropine sulfate monohydrate],0.996
14,CC(C)C[C@H]1C(=O)N2CCC[C@H]2[C@]2(O)O[C@](NC(=O)[C@@H]3C=C4c5cccc6[nH]c(Br)c(c56)C[C@H]4N(C)C3)(C(C)C)C(=O)N12 [Bromocryptine mesylate],0.931
15,CC(C)C[C@H]1C(=O)N2CCC[C@H]2[C@]2(O)O[C@](NC(=O)[C@@H]3C=C4c5cccc6[nH]c(Br)c(c56)C[C@H]4N(C)C3)(C(C)C)C(=O)N12 [Bromocriptine mesylate],0.962
16,c1ccc(CCCN2CCN(CCOC(c3ccccc3)c3ccccc3)CC2)cc1,1.07
17,CCC1=C[C@H]2CN3CCc4c([nH]c5ccccc45)[C@](C(=O)OC)(C2)[C@H]13 [Catharanthine],0.936
18,C#CCOC(=O)C1=CCCN(C)C1 [Arecaidine propargyl ester tosylate],0.981
19,O=C(Cc1ccc(Cl)c(Cl)c1)N1CCCCC1CN1CCCC1 (stereo not drawn),1.11
20,CC(C)NCC(O)c1ccc(N)c(C#N)c1 (stereo not drawn) [Cimaterol],1.07
21,C=C(C)CN1CC[C@@]23c4c5ccc(O)c4O[C@H]2c2[nH]c4ccccc4c2C[C@]3(O)C1C5 [SDM25N hydrochloride],1.02
22,CNC(C)(C)Cc1ccccc1 [Mephentermine hemisulfate],1.07
23,C[C@]12CCC(=O)C(O)=C1CC[C@@H]1[C@@H]2CC[C@]2(C)C(=O)CC[C@@H]12 [Formestane],1 ± 0.015

row,SMILES,surface PD-L1 immunofluorescence intensity
1,c1ccc(C2CC2)c(OCC2=NCCN2)c1 [Cirazoline hydrochloride],0.974
2,"Clc1ccc(N2CCN(Cc3c[nH]c4ncccc34)CC2)cc1 [L-745,870 trihydrochloride]",1.09
3,CN1CCN(c2ccc3ccccc3n2)CC1 [N-Methylquipazine dimaleate],1
4,CC1OC(OC2/C=C/C=C/C=C/C=C/CC/C=C/C=C/[C@H](C)[C@@H](O)[C@@H](C)[C@H](C)OC(=O)CC(O)CC(O)CC(O)CCC(O)C(O)C[C@]3(O)CC(O)C(C(=O)O)C(C2)O3)C(O)C(N)C1O (stereo partly drawn) [Nystatine],1.08
5,NCCCNCCSP(=O)(O)O [Amifostine],1
6,CCN(CC)C(=O)c1ccc(C2=CC3(CCNCC3)Oc3cccc(O)c32)cc1,1.1
7,NCCc1c[nH]c2ccc(C(N)=O)cc12 [5-Carboxamidotryptamine maleate],1.03
8,CC1(C)[C@@H](O)C[C@H]2[C@](C)(O)[C@@H]3CC[C@@H]4[C@@H](O)[C@@]3(C[C@@H](O)[C@@]21O)C[C@@]4(C)O [Grayanotoxin III],0.897
9,O=C(O)/C=C/CO [trans-4-Hydroxycrotonic acid],1.02
10,Cc1cc2c(C(C)C)c(O)c(O)c(C=O)c2c(O)c1-c1c(C)cc2c(C(C)C)c(O)c(O)c(C=O)c2c1O [Gossypol],1.02 ± 0.13
11,CC(C)(OO)c1ccccc1 [Cumene hydroperoxide],0.987
12,O=c1[nH]c2ccccc2n1C1CCN(CCCC(c2ccc(F)cc2)c2ccc(F)cc2)CC1 [Pimozide],1.04 ± 0.049
13,FC(F)(F)c1cccc(C2=CCN(CCc3ccc4ccccc4c3)CC2)c1 [Xaliproden hydrochloride],1.03
14,O=c1ccc2[nH]cc(C3=CCNCC3)c2[nH]1,1.13
15,CC(=O)NCCc1c[nH]c2ccccc12 [N-Acetyltryptamine],1.09
16,CC1=C2C[C@H]3[C@@H](CC=C4C[C@@H](O)CC[C@@]43C)[C@@H]2CC[C@]12O[C@@H]1C[C@H](C)CN[C@H]1[C@H]2C [Cyclopamine],1.01
17,C[C@]12CC[C@@H](O)C[C@H]1CC[C@@H]1[C@@H]2CC[C@]2(C)C(=O)CC[C@@H]12 [3-alpha-Hydroxy-5-beta-androstan-17-one],1.03
18,N[C@H](C(=O)O)c1cc(O)no1 [Ibotenic acid],0.973
19,CCN1CC2(OC(=O)c3ccccc3NC(C)=O)CCC(OC)C34C1C(CC23)C1(O)CC(OC)C2CC4C1(O)C2OC (stereo not drawn) [Lappaconite HBr],1.08
20,CN(C)C(=O)Oc1ccc[n+](C)c1 [Pyridostigmine iodide],0.935
21,C#CCN(C)[C@H](C)Cc1ccccc1 [Selegiline hydrochloride],0.955
22,CN1CCN(c2nc3ccccc3nc2Cl)CC1,0.967

# Random excerpt: four entries already listed
row,SMILES,surface PD-L1 immunofluorescence intensity
2,"Clc1ccc(N2CCN(Cc3c[nH]c4ncccc34)CC2)cc1 [L-745,870 trihydrochloride]",1.09
9,O=C(O)/C=C/CO [trans-4-Hydroxycrotonic acid],1.02
13,FC(F)(F)c1cccc(C2=CCN(CCc3ccc4ccccc4c3)CC2)c1 [Xaliproden hydrochloride],1.03
22,CN1CCN(c2nc3ccccc3nc2Cl)CC1,0.967
